According to publication PMC9679992, “Fusicoccin-A Targets Cancerous Inhibitor of Protein Phosphatase 2A by Stabilizing a C-Terminal Interaction with 14-3-3” (ACS Chemical Biology, 2022):

Test system: 14-3-3σΔC
Assay: X-ray cocrystallization / soaking with 14-3-3σΔC
Conditions: ternary complex 14-3-3σΔC/CIP2A/FC-A, PDB 7BMC, 2.0 Å

## C=CC(C)(C)OC[C@H]1O[C@H](O[C@@H]2C3=C([C@H](C)COC(C)=O)C[C@H](O)[C@]3(C)/C=C3/[C@@H](COC)CC[C@H]3[C@@H](C)[C@H]2O)[C@H](O)[C@@H](OC(C)=O)[C@@H]1O [FC-A, Fusicoccin-A]
  contacts in crystal structure: Polar contacts are established between FC-A and Lys122 and Asp215; also recorded: deeply buried in the hydrophobic groove where amino acids Val46, Phe119, Ile168, Leu218, Ile219, and Leu222 interact with the diterpene moiety

Entries after “also recorded” stand apart in the source; their conditions may differ.
